Measurements reported in publication PMC10089156.
No constants are given. Whether binding was seen depends on the method and setting. Binding seen in cells or lysates may run through a third protein. For some of these results: Binding calls can cover weak binding; strength is not graded here. For some of these results: Sequences can lack the tags named with a protein. Values belong to the molecule of their own block, whether it stands above or below them.

Columns and labels:
[1] = biological target: T1, AtEDS1-nVenus (Arabidopsis) (UniProt Q9SU72); experiment: split reporter; BiFC (cCFP + nVenus), 35S promoter-driven constructs Agro-infiltrated into N. benthamiana epss leaves (third component co-expressed, e.g. AtSAG101-Flag), Pf0-1 XopQ infiltrated at 48 hpi, imaged 4 to 6 h later; cells with YFP signal in nuclei or PM/cytoplasm counted
T1 sequence: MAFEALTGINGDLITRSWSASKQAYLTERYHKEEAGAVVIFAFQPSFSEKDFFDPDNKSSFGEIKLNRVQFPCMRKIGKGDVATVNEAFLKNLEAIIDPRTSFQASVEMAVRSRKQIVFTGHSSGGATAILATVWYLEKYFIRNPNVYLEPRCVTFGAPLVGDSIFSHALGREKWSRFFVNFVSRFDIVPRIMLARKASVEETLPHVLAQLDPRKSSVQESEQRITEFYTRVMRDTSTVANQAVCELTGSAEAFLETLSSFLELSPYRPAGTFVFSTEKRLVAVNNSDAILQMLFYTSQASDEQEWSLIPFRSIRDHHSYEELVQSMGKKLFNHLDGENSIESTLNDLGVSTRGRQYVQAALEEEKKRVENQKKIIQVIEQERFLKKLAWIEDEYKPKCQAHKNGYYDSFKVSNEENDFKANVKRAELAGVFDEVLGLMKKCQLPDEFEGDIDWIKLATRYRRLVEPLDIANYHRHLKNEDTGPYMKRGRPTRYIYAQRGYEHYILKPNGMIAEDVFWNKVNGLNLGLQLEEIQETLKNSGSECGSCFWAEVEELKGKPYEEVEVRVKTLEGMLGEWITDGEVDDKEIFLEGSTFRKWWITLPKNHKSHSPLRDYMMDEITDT

[2] = biological target: NRG1.2^EEAA-FLAG (Arabidopsis); experiment: co-IP; anti-FLAG M2 affinity gel IP from lysates of N. benthamiana leaves transiently co-expressing NRG1.2^EEAA-FLAG, EDS1-V5, SAG101-Myc and the TIR-only protein RBA1
[3] = biological target: NRG1.2^EEAA-FLAG (Arabidopsis); experiment: condition: only coexpressed with enzymatically inactive RBA1^E86A instead of RBA1; co-IP; as a8, but co-expressed with the enzymatically inactive NADase mutant RBA1^E86A instead of RBA1
[4] = biological target: NRG1.1-cCFP (Arabidopsis stable line) (Arabidopsis); experiment: split reporter; BiFC (cCFP + nVenus) in leaves of Arabidopsis stable lines in the absence of an effector (Pf0-1 EV or mock)
[5] = biological target: NRG1.1-cCFP (Arabidopsis stable line) (Arabidopsis); experiment: split reporter; BiFC (cCFP + nVenus) in leaves of native promoter-driven Arabidopsis stable lines, live cell imaging 4 to 6 h after Pf0-1 AvrRps4
[6] = biological target: NRG1.2-FLAG (Arabidopsis); experiment: co-IP + native gel or EMSA; anti-FLAG IP of NRG1.2-FLAG from Arabidopsis leaf lysates after Pf0-1 AvrRps4 (8 hpi) or β-estradiol with or without Pf0-1 AvrRps4^EEAA, 3xFLAG peptide elution products resolved by BN-PAGE (3 to 12% Bis-Tris) and western blot
[7] = biological target: NRG1.2-FLAG (Arabidopsis); experiment: co-IP; anti-FLAG M2 affinity gel IP of NRG1.2-FLAG from Arabidopsis leaf lysates (100 mM HEPES pH 7.5, 300 mM NaCl, 5 mM MgCl2, 0.5% NP-40 substitute, 10% glycerol, 4 °C), 3xFLAG peptide elution, SDS-PAGE and western blot; leaves with recognised effector: Pf0-1 AvrRps4 (4 and 8 hpi), β-estradiol-induced AvrRps4-mCherry, or β-estradiol with Pf0-1 AvrRps4^EEAA
[8] = biological target: NRG1.2-FLAG (Arabidopsis); experiment: co-IP; as a1, but leaves without recognised effector: uninfiltrated (preactivation), MgCl2 mock or Pf0-1 AvrRps4^EEAA
[9] = biological target: AtNRG1.1-cCFP (Arabidopsis); experiment: split reporter; BiFC (cCFP + nVenus) in N. benthamiana epss leaves in the absence of an effector (Pf0-1 EV or mock)
[10] = biological target: AtNRG1.1-cCFP (Arabidopsis); experiment: split reporter; BiFC (cCFP + nVenus), 35S promoter-driven constructs Agro-infiltrated into N. benthamiana epss leaves (third component co-expressed, e.g. AtSAG101-Flag), Pf0-1 XopQ infiltrated at 48 hpi, imaged 4 to 6 h later; cells with YFP signal in nuclei or PM/cytoplasm counted
[11] = biological target: AtNRG1.1^EEAA-cCFP (Arabidopsis); experiment: as above

B2: SAG101-nVenus (Arabidopsis stable line) (protein, UniProt Q4F883 28-537)
chain: KILEIHNPPYSNHDPGLQVSKKKKDSGLEFQIHREEKFTLVVFSAPPICRSSSSDSTLLHVKDKENPFPFLCSENNPSFSLHTPAFNLFTSASTSLTYLKSELLQTLKSEKPVIITGAALGGSVASLYTLWLLETIEPTLKRPLCITFGSPLIGDASLQQILENSVRNSCFLHVVSAQTRIKMDFFKPFGTFLICFDSGCVCIEDHVAVTELLNGVHDSGLVDYSQVLNRLDQSMLSLADSRLIPEDVIKGIEKRAEMKNLRFDMMFKKLNDMKISMAYIEWYKKKCKEVKIGYYDRFKTQLAFPSKEFDINIKNHHKSELNRFWKSVVEEVERRPQSDASILKRRFLFSGNNYRRMIEPLDIAEYYLEGRKEYRTTGRSHHYVMLEKWFGMESILIEKERCKKRDLSDLLTFDSCFWAEVEDSLIVINQLNTTVGMRDDVREVLTRKLVEFEGYVWEIITKREVSPEIFLEESSFMKWWKEYKKIKGFNSSYLTEFMNTRKYESYGKSQ
- binding [4]: no binding (only in the absence of an effector)
- binding [5]: binds

B3: EDS1-V5 (protein, UniProt Q9SU72 1-623)
chain: T1 sequence
- binding [6]: binds
- binding [7]: binds
- binding [8]: binds weakly

B4: AtEDS1-nVenus (protein, UniProt Q9SU72 1-623)
chain: T1 sequence
- binding [9]: no binding (only in the absence of an effector)
- binding [10]: binds
- binding [11]: binds

The next lines start with the values.

- binding [1]: binds
Molecule: AtSAG101-cCFP (from UniProt Q4F883)

- binding [2]: binds
- binding [3]: no binding
B1: SAG101-Myc (protein, UniProt Q4F883 28-537)
chain: B2 chain

- binding [2]: binds
- binding [3]: no binding
B5: EDS1-V5 (N. benthamiana transient) (protein, UniProt Q9SU72 1-623)
chain: T1 sequence
